Data source: PubChem BioAssay AID504808 (Drosophila RNAi Screening Center, 2011)

Screen: 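Chromatin factors that keep E2F targets switched off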 (primary screen)
System: Drosophila S2 cells
Reagents: long dsRNA against Drosophila genes
Detection: 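Firefly luciferase driven by E2F sites, normalised to Renilla luciferase on the same minimal promoter, measured by plate reader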
Scale: E2F firefly: higher = more E2F reporter activity; Renilla normaliser: higher = more normaliser reporter signal
Hit rule: 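Called active if the normalised E2F reporter went up by over 50%; the cutoff is arbitrary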
The screen tested about 21,000 reagents; this is a random part of those with a known target gene and a result. Over the whole deposit, 18 (0.084%) are marked active. 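Raw counts without plate normalisation, one of two replicates; the ratio scores behind the calls were not deposited.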 The numbers tell different reagents against one gene apart. A plus sign joins genes that one reagent is predicted to hit. The record does not give: the amount of reagent, the time to read-out.

f-cup | E2F firefly, rep 1 = 87353; Renilla normaliser, rep 1 = 3761; activity call = inactive
CG42726 + CG42727 | E2F firefly, rep 1 = 79165; Renilla normaliser, rep 1 = 4394; activity call = inactive
bma #1 | E2F firefly, rep 1 = 1.22e5; Renilla normaliser, rep 1 = 6035; activity call = inactive
bma #2 | E2F firefly, rep 1 = 1.19e5; Renilla normaliser, rep 1 = 7391; activity call = inactive
CG33333 | E2F firefly, rep 1 = 89307; Renilla normaliser, rep 1 = 2582; activity call = inactive
jus #1 | E2F firefly, rep 1 = 83446; Renilla normaliser, rep 1 = 4045; activity call = inactive
jus #2 | E2F firefly, rep 1 = 1.24e5; Renilla normaliser, rep 1 = 7113; activity call = inactive
CG14488 | E2F firefly, rep 1 = 1.45e5; Renilla normaliser, rep 1 = 5132; activity call = inactive
CG8301 | E2F firefly, rep 1 = 1.44e5; Renilla normaliser, rep 1 = 6574; activity call = inactive
CG12948 | E2F firefly, rep 1 = 1.41e5; Renilla normaliser, rep 1 = 6678; activity call = inactive
CG30383 | E2F firefly, rep 1 = 1.39e5; Renilla normaliser, rep 1 = 5952; activity call = inactive
CG42505 + CG42504 + CG31358 #1 | E2F firefly, rep 1 = 66198; Renilla normaliser, rep 1 = 3511; activity call = inactive
CG42505 + CG42504 + CG31358 #2 | E2F firefly, rep 1 = 55025; Renilla normaliser, rep 1 = 2896; activity call = inactive
CG42505 + CG42504 + CG31358 #3 | E2F firefly, rep 1 = 1.30e5; Renilla normaliser, rep 1 = 5501; activity call = inactive
nenya | E2F firefly, rep 1 = 77517; Renilla normaliser, rep 1 = 2788; activity call = inactive
eIF4E3 | E2F firefly, rep 1 = 77523; Renilla normaliser, rep 1 = 3395; activity call = inactive
Ir75b | E2F firefly, rep 1 = 1.69e5; Renilla normaliser, rep 1 = 8209; activity call = inactive
mle | E2F firefly, rep 1 = 1.13e5; Renilla normaliser, rep 1 = 4655; activity call = inactive
CG14314 | E2F firefly, rep 1 = 1.35e5; Renilla normaliser, rep 1 = 6485; activity call = inactive
wa-cup | E2F firefly, rep 1 = 1.35e5; Renilla normaliser, rep 1 = 6887; activity call = inactive
CheB74a | E2F firefly, rep 1 = 1.24e5; Renilla normaliser, rep 1 = 3632; activity call = inactive
CG1503 | E2F firefly, rep 1 = 1.42e5; Renilla normaliser, rep 1 = 5520; activity call = inactive
Dop2R #1 | E2F firefly, rep 1 = 1.38e5; Renilla normaliser, rep 1 = 6281; activity call = inactive
Dop2R #2 | E2F firefly, rep 1 = 1.20e5; Renilla normaliser, rep 1 = 7449; activity call = inactive
CG14085 | E2F firefly, rep 1 = 1.25e5; Renilla normaliser, rep 1 = 5773; activity call = inactive
cona | E2F firefly, rep 1 = 1.29e5; Renilla normaliser, rep 1 = 6825; activity call = inactive
mnb #1 | E2F firefly, rep 1 = 1.20e5; Renilla normaliser, rep 1 = 6655; activity call = inactive
mnb #2 | E2F firefly, rep 1 = 1.44e5; Renilla normaliser, rep 1 = 6316; activity call = inactive
Oatp74D #1 | E2F firefly, rep 1 = 1.29e5; Renilla normaliser, rep 1 = 3779; activity call = inactive
Oatp74D #2 | E2F firefly, rep 1 = 61958; Renilla normaliser, rep 1 = 3163; activity call = inactive
Fip1 | E2F firefly, rep 1 = 73351; Renilla normaliser, rep 1 = 3198; activity call = inactive
Myc | E2F firefly, rep 1 = 70508; Renilla normaliser, rep 1 = 4203; activity call = inactive
CG5078 | E2F firefly, rep 1 = 1.44e5; Renilla normaliser, rep 1 = 6652; activity call = inactive
CG34316 | E2F firefly, rep 1 = 83472; Renilla normaliser, rep 1 = 2996; activity call = inactive
Ufsp2 | E2F firefly, rep 1 = 69923; Renilla normaliser, rep 1 = 3868; activity call = inactive
ND-20L | E2F firefly, rep 1 = 1.37e5; Renilla normaliser, rep 1 = 5711; activity call = inactive

2 entries from above, limited to “Renilla normaliser, rep 1”.
CG30383 = 5952
CG42505 + CG42504 + CG31358 #1 = 3511
